PubChem BioAssay AID504793 – Drosophila RNAi Screening Center – 2011

Test: 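Whole-genome screen for parts of the DNA damage checkpoint at G2/M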 (primary screen)
System: Drosophila S2R+ cells
Knock-down reagent: long dsRNA against Drosophila genes, about 0.25 µg dsRNA per well
Duration: 4 days of dsRNA, then 4 hours of drug before read-out
Conditions: doxorubicin 0.5 µM for 4 hours to cause double-strand breaks, in cells also given a low, harmless dose of dsRNA against nbs to sensitise the assay
Measured: 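Mitotic index as the number of phospho-histone H3-positive cells in each well following doxorubicin, given as raw counts without normalisation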
Scale: mitotic cells: higher = more cells in mitosis, weaker G2 arrest
Hit rule: 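a call needs confirmation in secondary tests, with other dsRNAs and a check of mitotic timing without damage, not just a high primary count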
Meaning of the calls: active = confirmed in follow-up tests; inactive = not confirmed
The screen tested about 23,000 reagents; this is a random part of those that have a named target and a result. Of all reagents, 62 (0.27%) are marked active. 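Calls come from follow-up tests whose scores are not deposited, so confirmed genes may have low counts here; counts are not normalised per plate.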 Raw values vary from plate to plate and are shown uncorrected. Reagents against one gene are numbered here. Names joined by + are all predicted targets of the reagent.

Target gene	reagent no.	mitotic cells, replicate 1	mitotic cells, replicate 2	Outcome
SmD2	1	6		inactive
SmD2	2	6		inactive
qm	1	3		inactive
qm	2	8		inactive
Wsck	1	14		inactive
Wsck	2	6		inactive
slmb	1	3		inactive
Rheb	1	6		inactive
CG18809	1	4		inactive
CG18809	2	1		inactive
CG7378	1	10		inactive
CG5079	1	8		inactive
Gcat	1	4		inactive
Gcat	2	11		inactive
CG6508	1	3		inactive
pncr004:X (retired record)	1	9		inactive
CG17806	1	6		inactive
PH4alphaSG2	1	9		inactive
sei	1	8		inactive
sei	2	7		inactive
CG11703	1	6		inactive
CG11703	2	9		inactive
IntS1	1	8		inactive
IntS1	2	8		inactive
mgr	1	7		inactive
nom	1	1		inactive
nom	2	5		inactive
Dcr-1	1	5		inactive
Dcr-1	2	12		inactive
Obp99c	1	18		inactive
CG3740	1	11		inactive
CG2811	1	6		inactive
tpr	1	3		inactive
tpr	2	5		inactive
HLH54F	1	5		inactive
frma	1	6		inactive
frma	2	8		inactive
Wdr62	1	4		inactive
Wdr62	2	9		inactive
AgmNAT	1	19		inactive
cnir	1	4		inactive
cnir	2	10		inactive
CG31431	1	6		inactive
CG32832	1	6		inactive
IFT43	1	5		inactive
Rh6	1	1		inactive
Rh6	2	4		inactive
Elys	1	6	3	inactive
Gbp1	1	13		inactive
RpL7	1	5		inactive
RpL7	2	7		inactive
CG5386	1	8		inactive
eIF2Bdelta	1	2		inactive
mIF3	1	5		inactive
bdwf	1	1		inactive
Dh44-R1	1	11		inactive
Dh44-R1	2	4		inactive
MCTS1	1	8		inactive
CG9864	1	7		inactive
CG9864	2	13		inactive
Cyp313a1	1	4		inactive
Cyp313a1	2	5		inactive
DAAM	1	11		inactive
CG7564	1	6		inactive
CG7564	2	15		inactive
Fim	1	9		inactive
CG34459	1	5		inactive
Obp19b	1	8		inactive
Obp19b	2	10		inactive

Records listed so far whose gene name begins with C or c:
Target gene	reagent no.	mitotic cells, replicate 1	mitotic cells, replicate 2	Outcome
CG18809	1	4		inactive
CG18809	2	1		inactive
CG7378	1	10		inactive
CG5079	1	8		inactive
CG6508	1	3		inactive
CG17806	1	6		inactive
CG11703	1	6		inactive
CG11703	2	9		inactive
CG3740	1	11		inactive
CG2811	1	6		inactive
cnir	1	4		inactive
cnir	2	10		inactive
CG31431	1	6		inactive
CG32832	1	6		inactive
CG5386	1	8		inactive
CG9864	1	7		inactive
CG9864	2	13		inactive
Cyp313a1	1	4		inactive
Cyp313a1	2	5		inactive
CG7564	1	6		inactive
CG7564	2	15		inactive
CG34459	1	5		inactive

Further reagents follow:
Target gene	reagent no.	mitotic cells, replicate 1	mitotic cells, replicate 2	Outcome
Ccdc56 + mtTFB1	1	3		inactive
Acsx1R	1	13		inactive
mAcon1	1	2		inactive
mAcon1	2	3		inactive
thetaTry	1	5		inactive
thetaTry	2	8		inactive
MED14	1	4		inactive
MED14	2	23		inactive
e	1	15		inactive
e	2	5		inactive
Pmm2	1	5		inactive
Pmm2	2	5		inactive
Dop1R2	1	9		inactive
Dop1R2	2	18		inactive
Dop1R2	3	10		inactive
CG31274 + MESK4	1	1		inactive
CG9143	1	3		inactive
asRNA:CR42743 + CG34162	1	10		inactive
Ir56a	1	5		inactive
Ir56a	2	5		inactive
Dok	1	7		inactive
Dok	2	5		inactive
CG32986	1	5		inactive
Dgat2	1	7		inactive
CG15370	1	24		inactive
CG15370	2	7		inactive
meso18E	1	4		inactive
meso18E	2	6		inactive
CG45002	1	5		inactive
Idgf6	1	1		inactive
Idgf6	2	8		inactive
CG17575	1	9		inactive
CG17575	2	4		inactive
mal	1	3		inactive
mal	2	3		inactive
Mob2	1	4		inactive
Mob2	2	6		inactive
Mob2	3	4		inactive
CG17192	1	16		inactive
CG17192	2	11		inactive
CCT6	1	150		inactive
